# Data from PubChem BioAssay AID540276 (National Center for Advancing Translational Sciences (NCATS), 2011).
# Values joined by “and” are separate entries in the source; they are usually repeats but may differ in a detail not shown here. Identical values can stand only once. Among all 300,000 compounds or so, about 5,400 (1.8%) were called active. The shares of active, inactive and inconclusive entries below differ from those in the screen. The call rests on the fitted dose curve; tested in HEK293 cells. A potency beside an inconclusive call is a rough fit, not a confirmed value.
# Assay: qHTS for inhibitors of binding or entry into cells for Marburg Virus
# Conditions: Marburg virus pseudotyped entry inhibition, cell reporter; series mostly up to 37.8 µM
# Potency means the concentration at half of the fitted maximal effect.
row,SMILES,Potency
1,O=C(c1cc(-c2ccccc2O)on1)N1CCCCC1,"inconclusive: 35.5 µM [activator, partial curve, poor fit]"
2,COc1cc(-c2cc(C(=O)Nc3nc4ccccc4s3)c3ccccc3n2)cc(OC)c1OC,"inconclusive: 35.5 µM [inhibitor, single point]"
3,CC1Cc2ccccc2N1S(=O)(=O)c1cccc(C(=O)Nc2cccnc2)c1 (stereo unspecified),"inconclusive: 35.5 µM [inhibitor, single point]"
4,Cc1ccc(C(=O)NCCCc2ccccc2)c(C)c1,"inconclusive: 17.8 µM [inhibitor, partial curve, poor fit]"
5,O=C(OCC#CCSc1nnc(-c2ccncc2)o1)c1cccs1,"inconclusive: 25.9 µM [inhibitor, single point]"
6,CC(=O)N(C)Cc1ccc(C(=O)CSc2nnc(C3CC3)n2C2CC2)cc1,"inconclusive: 3.98 µM [activator, single point]"
7,Cc1cnc(NC(=O)CC(C)c2ccccc2)s1 (stereo unspecified),"inconclusive: 8.91 µM [inhibitor, partial curve]"
8,COc1ccc(C2CC(c3cccs3)=NN2C(=O)CSc2nnc(N)s2)cc1OC (stereo unspecified),"inconclusive: 6.31 µM [inhibitor, partial curve, poor fit]"
9,CCOC(=O)/C=C/C(=O)OCC(=O)N1CCN(C(=O)c2ccco2)CC1,"inconclusive: 35.5 µM [inhibitor, single point]"
10,CCOC(=O)CSC1=C(C#N)C(c2ccco2)C(C(=O)OCc2ccccc2)=C(C)N1 (stereo unspecified),"inconclusive: 20.6 µM [inhibitor, single point]"
11,CC(=O)c1c(COC(=O)c2cccnc2)nc2ccccc2[n+]1[O-],"inconclusive: 0.158 µM [activator, full curve, poor fit]"
12,O=c1ccnc(SCc2ccccc2Cl)[nH]1,"inconclusive: 20.6 µM [activator, single point]"
13,CC(=O)Nc1ccccc1C(=O)C(=O)Nc1cccc(C(=O)NCC2CCCO2)c1 (stereo unspecified),"inconclusive: 6.31 µM [activator, single point]"
14,CN(c1ccccc1)c1nc(N)c([N+](=O)[O-])c(N2CCCCCC2)n1,"inconclusive: 22.4 µM [inhibitor, single point]"
15,CCCCCn1c(=O)[nH]c2c(c1=O)CCC2,inactive
16,Cn1c(-c2cccs2)nc2ccccc21,"inconclusive: 11.2 µM [activator, single point]"
17,COc1ccc(OC)c(-n2nnnc2SCC(=O)NCCc2ccccc2)c1,"inconclusive: 11.6 µM [inhibitor, partial curve, poor fit]"
18,COCCn1c(=O)[nH]c(=O)c2c1nc(-c1cc(Br)c3c(c1)OCO3)n2Cc1ccccc1,"inconclusive: 6.31 µM [inhibitor, full curve, poor fit]"
19,Cc1ccc(N(CC(O)CN2CCCC2)S(=O)(=O)c2ccc(C)cc2)cc1 (stereo unspecified),"inactive and inconclusive: 1.26 µM [inhibitor, single point]"
20,O=C(/C=C/c1ccccc1)N1CCN(c2cccc(Cl)n2)CC1,"inconclusive: 0.326 µM [inhibitor, partial curve, poor fit]"
21,O=C(Cn1c(=O)n(Cc2ccco2)c(=O)c2c3c(sc21)CCCC3)Nc1ccccc1,"inconclusive: 35.5 µM [inhibitor, single point]"
22,Cc1ccc2nc(C(C)O)[nH]c2c1 (stereo unspecified),"inconclusive: 0.146 µM [activator, single point]"

row,SMILES,Potency
1,COc1cc2[nH]c(=O)n(CCC(=O)N3CCN(c4ccc(Cl)cc4)CC3)c(=O)c2cc1OC,inactive
2,C/C(=N\NC(=O)c1cccnc1)c1ccc(Br)cc1,inactive
3,Cc1cc2nc(/N=C(\N)NC(=O)C(C)C)nc(C)c2cc1C,"inconclusive: 10 µM [inhibitor, partial curve, poor fit]"
4,O=C(OCC(=O)N1CCN(c2ccccc2)CC1)c1ccc2ncsc2c1,inactive
5,Clc1ccc2c(c1)C(c1ccccc1Cl)=NCc1nnc(N3CCN(CCOc4ccccc4)CC3)n1-2,"inconclusive: 1.12 µM [inhibitor, full curve, poor fit]"
6,O=c1c2cc(NC(=S)NC3CCCC3)ccc2nc2n1CCCCC2,"inconclusive: 22.4 µM [inhibitor, single point]"
7,COc1ccc(O)c(C=Nc2cc(NC(C)=O)c(Cl)cc2Cl)c1,inactive
8,CNC(=O)CSCCn1c(SCC(=O)NC)nc2ccccc2c1=O,"inconclusive: 7.08 µM [activator, partial curve]"
9,CCN(C(=O)COC(=O)/C=C/c1ccccc1Cl)c1c(N)n(Cc2ccccc2)c(=O)[nH]c1=O,"inconclusive: 25.1 µM [inhibitor, single point]"
10,Nc1nnc(/C=C/c2ccccc2)s1,inactive
11,CCOc1ccccc1OCC(O)CNC (stereo unspecified),inactive
12,COc1ccc(Cc2nnc(Nc3ccc(Cl)cc3)[nH]c2=O)cc1,inactive
13,Cc1snc(S(=O)(=O)Cc2c(Cl)cccc2Cl)c1C#N,inactive
14,CC1CCN(CCCCOc2ccc([N+](=O)[O-])cc2)CC1,"inconclusive: 35.5 µM [inhibitor, single point]"
15,Cn1cc(NC(=O)CCl)cn1,"inconclusive: 17.8 µM [inhibitor, partial curve, poor fit]"
16,CCc1cc(OCCOCCN(C)C)ccc1Cl,"inconclusive: 0.0517 µM [inhibitor, full curve, poor fit]"
17,Cc1ccc(Oc2ncccc2/C=N/O)cc1,inactive
18,CCN1CCN(c2nc3sc4c(c3c3ncnn23)CC(C)CC4)CC1 (stereo unspecified),"inconclusive: 35.5 µM [inhibitor, single point]"
19,O=C(Nc1ccc(N2CCOCC2)c(S(=O)(=O)Nc2ccccc2Cl)c1)c1ccc(F)cc1,"inconclusive: 5.62 µM [inhibitor, partial curve, poor fit]"
20,Nc1ncnc2c1cnn2C1CCCCC1,inactive
21,CC(OC(=O)c1ccccn1)C(=O)Nc1nc(-c2ccc(F)c(F)c2)cs1 (stereo unspecified),"inconclusive: 1.26 µM [activator, partial curve, poor fit]"
22,Cc1noc(C)c1COC(=O)c1ccc(S(=O)(=O)N2CCCCC2)cc1,"inconclusive: 0.562 µM [inhibitor, full curve, poor fit]"

row,SMILES,Potency
1,Cc1ccc(C(=O)/C=C2\NCCNC2=O)cc1,inactive
2,CC(=O)/C(C#N)=C1\NC(=O)C(Cc2ccc(C)c(Cl)c2)S1 (stereo unspecified),"inconclusive: 1.41 µM [inhibitor, full curve, poor fit]"
3,CC(=O)c1cccc(NC(=O)CCc2c(C)nc3c(c(C)nn3-c3ccccc3)c2C)c1,inactive
4,COc1ccc(C(=O)C2CCCN(Cc3cccn3-c3ccccn3)C2)cc1F (stereo unspecified),"inconclusive: 20 µM [inhibitor, partial curve, poor fit]"
5,CN(c1ccccc1C(=O)NCc1ccco1)S(C)(=O)=O,"inconclusive: 29.1 µM [activator, single point]"
6,Cc1ccc2c(C)c(C(=O)N(C)C(C)c3ccon3)oc2c1C (stereo unspecified),"inconclusive: 35.5 µM [inhibitor, single point]"
7,COc1cccc(NC(=O)C(Sc2nnc(-c3ccncc3)n2-c2ccc(Cl)cc2)c2ccccc2)c1 (stereo unspecified),"inconclusive: 35.5 µM [inhibitor, partial curve, poor fit]"
8,COc1ccccc1CNC(=O)C/C(C)=N/NC(=O)Cc1ccc(Cl)cc1,"inconclusive: 6.31 µM [activator, partial curve, poor fit]"
9,Cc1cc2ncn(C3CC(=O)N(Cc4ccc(N5CCCC5=O)cc4)C3=O)c2cc1C (stereo unspecified),inactive
10,Cc1cccc(NC(=O)CSc2nc3ccccc3nc2N2CCCCC2)c1C,inactive
11,COc1cc(NC(=O)C(Cc2ccccc2)NS(=O)(=O)c2cccc3nsnc23)cc(OC)c1 (stereo unspecified),"inconclusive: 11.2 µM [inhibitor, partial curve, poor fit]"
12,COc1ccccc1NNC(=O)c1cc(C(C)(C)C)nn1Cc1ccccc1,"inconclusive: 35.5 µM [inhibitor, single point]"
13,CC1(C)C(N(O)C(=O)Nc2ccc(Cl)cc2)N(c2ccc(Cl)cc2)C(=O)N1CC(=O)NN (stereo unspecified),"inconclusive: 5.17 µM [inhibitor, single point]"
14,CCOC(=O)c1sc(/N=C/Nc2nc(C)c(C(=O)OCC)s2)nc1C,"inconclusive: 15.8 µM [activator, partial curve, poor fit]"
15,C=CCOc1ccc(C2C(C#N)=C(N)N(Nc3ccccc3)C3=C2C(=O)CCC3)cc1OC (stereo unspecified),"inconclusive: 11.2 µM [inhibitor, partial curve, poor fit]"
16,COc1ccc(CSC2=CS(=O)(=O)c3ccccc3N2)cc1,"inconclusive: 11.2 µM [inhibitor, partial curve]"
17,Cc1ccc(Cl)cc1NC(=O)C1CCN(S(=O)(=O)c2cccc3nonc23)CC1,inactive
18,Cc1occc1C(=O)N/N=C/c1ccc(Br)s1,"inconclusive: 2.82 µM [activator, partial curve, poor fit]"
19,NC(=O)c1ccccc1NC(=O)CN1CCN(Cc2ccc(Cl)cc2Cl)CC1,"inconclusive: 35.5 µM [inhibitor, single point]"
20,CN(Cc1ccc(Br)cc1)C(=O)CCN1C(=O)c2cccc([N+](=O)[O-])c2C1=O,"inconclusive: 8.91 µM [inhibitor, partial curve]"
21,Cc1cc(=O)[nH]c(SCC2COC3(CCCCC3)O2)n1 (stereo unspecified),"inconclusive: 0.0065 µM [inhibitor, full curve, poor fit]"
22,COc1ccc(OCc2cc(C(=O)N3CCCC(O)C3)no2)c2ccccc12 (stereo unspecified),inactive
